No constants are given. Whether binding was seen depends on the method and setting. In cells and extracts the contact can be indirect. Some entries that bind do so weakly or less than the wild type. For part of these data: Where a sequence is shown, tags or fusion partners need not be part of it. One block for each binder: values may come before it.
Legend:
[1] = biological target: T1, serum response factor (human (endogenous in HASMCs)) (UniProt P11831); test: co-IP; lysates of HASMCs transfected with pCMV-HA or HA-MYOCD; IP with anti-p-p38 MAPK, anti-SRF or anti-MYOCD antibodies; Western blot with the same three antibodies
T1 sequence: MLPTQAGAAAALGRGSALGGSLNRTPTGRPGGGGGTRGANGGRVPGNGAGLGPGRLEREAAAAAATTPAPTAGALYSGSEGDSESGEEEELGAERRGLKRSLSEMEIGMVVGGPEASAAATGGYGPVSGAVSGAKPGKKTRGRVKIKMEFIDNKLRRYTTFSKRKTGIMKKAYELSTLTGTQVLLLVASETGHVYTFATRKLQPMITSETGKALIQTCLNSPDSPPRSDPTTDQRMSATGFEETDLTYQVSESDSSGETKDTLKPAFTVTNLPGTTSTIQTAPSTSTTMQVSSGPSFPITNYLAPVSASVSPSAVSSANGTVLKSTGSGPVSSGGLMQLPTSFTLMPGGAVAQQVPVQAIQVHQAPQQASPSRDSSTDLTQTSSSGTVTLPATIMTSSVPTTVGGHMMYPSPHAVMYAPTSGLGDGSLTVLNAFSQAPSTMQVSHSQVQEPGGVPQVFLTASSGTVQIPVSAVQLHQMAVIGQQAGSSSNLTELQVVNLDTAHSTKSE

Protein sequences, listed by entry. Tags and fused reporters are not part of them. Residues count along the entry.
UniProt P11362, residues 22-822: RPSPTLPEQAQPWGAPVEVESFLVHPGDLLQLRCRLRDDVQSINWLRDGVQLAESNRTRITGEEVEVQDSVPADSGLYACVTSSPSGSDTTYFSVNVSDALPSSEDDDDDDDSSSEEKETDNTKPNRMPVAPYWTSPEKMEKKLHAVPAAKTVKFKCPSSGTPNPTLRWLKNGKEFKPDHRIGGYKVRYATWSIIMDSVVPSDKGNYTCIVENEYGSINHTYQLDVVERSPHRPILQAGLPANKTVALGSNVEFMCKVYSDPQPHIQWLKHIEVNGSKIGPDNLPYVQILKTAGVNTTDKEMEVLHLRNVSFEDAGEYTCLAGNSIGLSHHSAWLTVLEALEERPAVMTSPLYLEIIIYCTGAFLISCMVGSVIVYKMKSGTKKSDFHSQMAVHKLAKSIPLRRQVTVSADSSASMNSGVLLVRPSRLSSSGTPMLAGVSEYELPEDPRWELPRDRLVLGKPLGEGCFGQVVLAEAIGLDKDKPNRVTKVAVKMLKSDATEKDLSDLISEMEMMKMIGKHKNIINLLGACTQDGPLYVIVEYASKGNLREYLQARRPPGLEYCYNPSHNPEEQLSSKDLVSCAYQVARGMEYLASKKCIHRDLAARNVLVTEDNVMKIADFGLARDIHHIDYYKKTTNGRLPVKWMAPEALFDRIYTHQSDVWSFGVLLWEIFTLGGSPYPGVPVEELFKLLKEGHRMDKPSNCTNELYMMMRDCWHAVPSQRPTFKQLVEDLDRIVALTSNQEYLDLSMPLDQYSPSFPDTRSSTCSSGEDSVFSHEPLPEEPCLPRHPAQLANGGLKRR

[2] = biological target: T2, HA-tagged serum response factor (UniProt P11831); test: co-IP; lysates of HASMCs transfected with pCMV-HA, HA-SRF, or HA-SRF plus siFGF21; IP with HA-tagged magnetic beads; blot with anti-MYOCD, SRF and p38 MAPK antibodies
T2 sequence: T1 sequence

[3] = biological target: phosphorylated FGF receptor 1 (human (endogenous in HASMCs)) (UniProt P11362); test: co-IP; lysates of HASMCs transfected with HA-FGF21; IP with anti-p-FGFR1 or anti-p-TAK1 antibodies; Western blot with the same two antibodies

binding [1]: binds
B1: HA-tagged myocardin (protein, UniProt Q8IZQ8 1-938)
chain: MTLLGSEHSLLIRSKFRSVLQLRLQQRRTQEQLANQGIIPPLKRPAEFHEQRKHLDSDKAKNSLKRKARNRCNSADLVNMHILQASTAERSIPTAQMKLKRARLADDLNEKIALRPGPLELVEKNILPVDSAVKEAIKGNQVSFSKSTDAFAFEEDSSSDGLSPDQTRSEDPQNSAGSPPDAKASDTPSTGSLGTNQDLASGSENDRNDSASQPSHQSDAGKQGLGPPSTPIAVHAAVKSKSLGDSKNRHKKPKDPKPKVKKLKYHQYIPPDQKAEKSPPPMDSAYARLLQQQQLFLQLQILSQQQQQQQHRFSYLGMHQAQLKEPNEQMVRNPNSSSTPLSNTPLSPVKNSFSGQTGVSSFKPGPLPPNLDDLKVSELRQQLRIRGLPVSGTKTALMDRLRPFQDCSGNPVPNFGDITTVTFPVTPNTLPNYQSSSSTSALSNGFYHFGSTSSSPPISPASSDLSVAGSLPDTFNDASPSFGLHPSPVHVCTEESLMSSLNGGSVPSELDGLDSEKDKMLVEKQKVINELTWKLQQEQRQVEELRMQLQKQKRNNCSEKKPLPFLAASIKQEEAVSSCPFASQVPVKRQSSSSECHPPACEAAQLQPLGNAHCVESSDQTNVLSSTFLSPQCSPQHSPLGAVKSPQHISLPPSPNNPHFLPSSSGAQGEGHRVSSPISSQVCTAQMAGLHSSDKVGPKFSIPSPTFSKSSSAISEVTQPPSYEDAVKQQMTRSQQMDELLDVLIESGEMPADAREDHSCLQKVPKIPRSSRSPTAVLTKPSASFEQASSGSQIPFDPYATDSDEHLEVLLNSQSPLGKMSDVTLLKIGSEEPHFDGIMDGFSGKAAEDLFNAHEILPGPLSPMQTQFSPSSVDSNGLQLSFTESPWETMEWLDLTPPNSTPGFSALTTSSPSIFNIDFLDVTDLNLNSSMDLHLQQW

binding [2]: binds
B2: myocardin (protein, UniProt Q8IZQ8 1-938)
chain: B1 chain

binding [3]: binds
B3: phosphorylated transforming growth factor-β-activated kinase 1 (enzyme, UniProt O43318 1-606)
chain: MSTASAASSSSSSSAGEMIEAPSQVLNFEEIDYKEIEVEEVVGRGAFGVVCKAKWRAKDVAIKQIESESERKAFIVELRQLSRVNHPNIVKLYGACLNPVCLVMEYAEGGSLYNVLHGAEPLPYYTAAHAMSWCLQCSQGVAYLHSMQPKALIHRDLKPPNLLLVAGGTVLKICDFGTACDIQTHMTNNKGSAAWMAPEVFEGSNYSEKCDVFSWGIILWEVITRRKPFDEIGGPAFRIMWAVHNGTRPPLIKNLPKPIESLMTRCWSKDPSQRPSMEEIVKIMTHLMRYFPGADEPLQYPCQYSDEGQSNSATSTGSFMDIASTNTSNKSDTNMEQVPATNDTIKRLESKLLKNQAKQQSESGRLSLGASRGSSVESLPPTSEGKRMSADMSEIEARIAATTAYSKPKRGHRKTASFGNILDVPEIVISGNGQPRRRSIQDLTVTGTEPGQVSSRSSSPSVRMITTSGPTSEKPTRSHPWTPDDSTDTNGSDNSIPMAYLTLDHQLQPLAPCPNSKESMAVFEQHCKMAQEYMKVQTEIALLLQRKQELVAELDQDEKDQQNTSRLVQEHKKLLDENKSLSTYYQQCKKQLEVIRSQQQKRQGTS
modifications: phosphorylated (p-TAK1); sites not stated
